Laboratory results from patent US20230018423A1, “BENZIMIDAZOLE DERIVATIVES FOR TREATMENT AND/OR PREVENTION OF DISEASES AND DISORDERS MEDIATED BY NLRP3” (YODA PHARMACEUTICALS INC., priority 2021, published 2023).
For at least one compound, name, drawing or mass did not settle the structure.

Amino acid sequences for entries named in this document (tags omitted).
UniProt Q96P20, whole entry: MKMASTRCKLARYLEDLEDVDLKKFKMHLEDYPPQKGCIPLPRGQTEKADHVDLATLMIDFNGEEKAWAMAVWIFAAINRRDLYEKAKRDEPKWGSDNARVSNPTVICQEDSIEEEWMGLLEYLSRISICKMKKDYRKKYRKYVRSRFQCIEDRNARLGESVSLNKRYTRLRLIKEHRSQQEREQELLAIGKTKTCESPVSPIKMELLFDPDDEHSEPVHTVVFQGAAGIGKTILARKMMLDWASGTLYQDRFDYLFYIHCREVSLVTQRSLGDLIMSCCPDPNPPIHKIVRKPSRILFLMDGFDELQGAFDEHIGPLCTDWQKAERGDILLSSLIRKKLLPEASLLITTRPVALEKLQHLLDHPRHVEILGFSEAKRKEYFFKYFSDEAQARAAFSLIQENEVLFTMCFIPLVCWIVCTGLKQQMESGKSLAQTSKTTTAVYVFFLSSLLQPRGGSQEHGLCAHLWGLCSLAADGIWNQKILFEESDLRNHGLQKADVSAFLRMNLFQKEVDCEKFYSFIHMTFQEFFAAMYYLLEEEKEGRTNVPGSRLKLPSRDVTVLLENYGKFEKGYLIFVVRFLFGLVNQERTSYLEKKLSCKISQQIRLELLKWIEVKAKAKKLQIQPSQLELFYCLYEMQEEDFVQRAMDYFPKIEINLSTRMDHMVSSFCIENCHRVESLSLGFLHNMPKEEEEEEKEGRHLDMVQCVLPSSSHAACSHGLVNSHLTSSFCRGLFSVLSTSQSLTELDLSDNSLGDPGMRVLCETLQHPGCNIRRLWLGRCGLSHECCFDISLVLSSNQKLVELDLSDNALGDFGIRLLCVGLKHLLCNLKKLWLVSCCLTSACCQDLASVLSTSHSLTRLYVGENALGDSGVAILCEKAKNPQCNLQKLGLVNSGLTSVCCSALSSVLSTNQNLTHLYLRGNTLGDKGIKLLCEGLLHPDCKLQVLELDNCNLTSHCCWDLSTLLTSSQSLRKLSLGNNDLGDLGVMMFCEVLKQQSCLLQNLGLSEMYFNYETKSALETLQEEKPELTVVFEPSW

Assays:
[1] = molecular target: T1, NLRP3 inflammasome (Homo sapiens, UniProt Q96P20); experiment: NLRP3 inflammasome assay, IL-1β ELISA in LPS- and MSU-treated THP-1 cells; details: 50 ng/mL LPS + 400 ug/ml MSU, compared to the LPS+MSU group, RS-D7 0.1-5 uM, others 0.2-5 uM, FIG. 2B
[2] = molecular target: T1, NLRP3 inflammasome; experiment: NLRP3 inflammasome assay, IL-1β ELISA in LPS- and ATP-treated THP-1 cells; details: 50 ng/mL LPS + 5 mM ATP, compared to the LPS+ATP group, MCC950 1 uM, RS-D7 0.1-5 uM, others 0.2-5 uM, FIG. 2A

SMILES | IL-1β level in cell culture supernatant (ELISA) [1] | IL-1β level in cell culture supernatant (ELISA) [2]
CCC(C)C(=O)Oc1ccc2[nH]c([S+]([O-])Cc3ncc(C)c(OC)c3C)nc2c1 (stereo not shown) [compound 12127, (2-(((4-methoxy-3,5-dimethylpyridin-2-yl)methyl)sulfinyl)-1H-benzo[d]imidazol-5-yl 2-methylbutanoate)] | significantly lower levels | significantly lower levels
CCC(CC)C(=O)Oc1ccc2[nH]c([S+]([O-])Cc3ncc(C)c(OC)c3C)nc2c1 (stereo not shown) [compound 28093, (2-(((4-methoxy-3,5-dimethylpyridin-2-yl)methyl)sulfinyl)-1H-benzo[d]imidazol-5-yl 2-ethylbutanoate)] | significantly lower levels | significantly lower levels
